Values quoted from earlier work, collected in patent US11647993B2, “Oral fluid collector” (Research Triangle Institute, priority 2017, dated 2023).
For at least one compound, name, drawing or mass did not settle the structure.

Conditions: room temperature; cited from earlier work

COC(=O)[C@H]1[C@@H](OC(=O)c2ccccc2)C[C@@H]2CC[C@H]1N2C [cocaine]
volume of water in which 1 gram dissolves: 600 mL
